# Assay results taken from PubChem BioAssay.
# The other results are listed elsewhere or left out. Shown are side measurements of this screen, not its main read-out; they come without a call. Compounds called inactive in the main read-out are mostly missing here.
# Experiment: inhibitors of TNFa-induced NFkB p65 translocation, primary screen, imaging, HUVEC, MLSMR starter and 10KST1 sets (AID 438);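 further: compound added about 3h40 before a 20 min TNFalpha stimulation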
# Conditions: HUVEC TNFa-induced p65 nuclear translocation, measured here: nuclei count (cytotoxicity indicator), at 2.08 µM
smiles,measurement,value
O=C(COc1ccc2ccccc2c1)N1CCN(C2CCN(Cc3ccccc3)CC2)CC1,cell count,511
